# Test results taken from patent publication US20070053837A1, “Radiopharmaceuticals for cancer diagnosis and treatment” (priority 2003, published 2007).
# At least one peptide structure holds a part that was inferred or is arguable (an end, a ring closure or a residue).
# Tests used:
# [1] = Stability test (radionuclide transfer to competitive chelator DTPA); type: physicochemical; conditions: water pH 7, 10^5 excess DTPA
# [2] = test system: gliomas / glioblastoma; type: in vivo, patients
# From the text: As a third group which can serve as a control, 5 advanced cases that had been treated by the so called standard regimens with virtually no therapeutic option left anymore were included. […] In cases with biopsy alone, average survival is around 9 weeks without further treatment. In the 4 cases of this pilot study, all patients survived at least 2 months and up to 9 months, and In a special case even show a remarkable partial response. In the resected 5 cases followed by Internal radionuclide conjugate brachytherapy, overall survival appeared to be longer than expected which is in the range between 14 and 26 months. According to the only large randomized trial of 1970s which serves as historical control, resection alone would have led to an expected survival of about 4 months, and resection plus an external beam radiotherapy to a mean survival of about 9.5 months. […] This interpretation of the data is further supported by an impressive partial response (case W. […] A key question in local glioma therapy is whether one can achieve to reach infiltrating tumor cell nests or satellite lesion. […] The presently used dissipative Y-90 (range 3-6 mm) is more suitable for bulky lesions.
smiles,measurement,setting,value
"CSCC[C@H](NC(=O)[C@H](CC(C)C)NC(=O)CNC(=O)[C@H](Cc1ccccc1)NC(=O)[C@H](Cc1ccccc1)NC(=O)[C@H](CCC(N)=O)NC(=O)[C@H](CCC(N)=O)NC(=O)[C@@H]1CCCN1C(=O)[C@H](CCCCN)NC(=O)[C@@H]1CCCN1C(=O)[C@H](CCCNC(=N)N)NC(=O)CCC(C(=O)O)N1CCN(CC(=O)O)CCN(CC(=O)O)CCN(CC(=O)O)CC1)C(N)=O (stereo partly shown) [^90Y-DOTAGA-Substance P, ^90Y-DOTAGA-Arg^1-Pro^2-Lys^3-Pro^4-Gln^5-Gln^6-Phe^7-Phe^8-Gly^9-Leu^10-Met^11-NH2, metal not drawn]",Intact part (%),[1]; time 0 h,100%
same,Intact part (%),[1]; time 73 h,99.361%
same,Intact part (%),[1]; time 168 h,98.483%
same,Intact part (%),[1]; time 234 h,98.030%
same,Intact part (%),[1]; time 405 h,97.185%
same,control of the satellite lesion,"[2]; 4 cm distant satellite lesion, despite good labelling",could not be controlled
same,volume reduction of the glioblastoma,"[2]; case, non-resectable left-sided thalamic glioblastoma, monotherapy",over 80%
